In patent publication US7537911B2, “ATM related kinase, ATX, nucleic acids encoding same and methods of use” (Burnham Institute for Medical Research, priority 2002, dated 2009):
At least one structure is not confirmed: it was looked up by name or label, or the drawing left a doubt.

System: GAL4-hUpf11019-1118
Assay: GAL4-hUpf1 mobility shift assay
Format: cell-based, human
Details: U2OS, 20 μM, 30 min pretreatment

For `COC[C@H]1OC(=O)c2coc3c2[C@@]1(C)C1=C(C3=O)[C@@H]2CCC(=O)[C@@]2(C)C[C@H]1OC(C)=O` [wortmannin], the “FBS- or UV-induced generation of the most slowly migrating form of GAL4-hUpf11019-1118” value was “preferentially inhibited”.
